Test results as given in the supplement of paper PMC10849652.
The other results are listed elsewhere or left out.

Protein sequences, listed by entry. Tags and fused reporters are not part of them. Lines headed by an entry give the natural chain unless they say otherwise; changes in a name come on top.
UniProt Q9Y223: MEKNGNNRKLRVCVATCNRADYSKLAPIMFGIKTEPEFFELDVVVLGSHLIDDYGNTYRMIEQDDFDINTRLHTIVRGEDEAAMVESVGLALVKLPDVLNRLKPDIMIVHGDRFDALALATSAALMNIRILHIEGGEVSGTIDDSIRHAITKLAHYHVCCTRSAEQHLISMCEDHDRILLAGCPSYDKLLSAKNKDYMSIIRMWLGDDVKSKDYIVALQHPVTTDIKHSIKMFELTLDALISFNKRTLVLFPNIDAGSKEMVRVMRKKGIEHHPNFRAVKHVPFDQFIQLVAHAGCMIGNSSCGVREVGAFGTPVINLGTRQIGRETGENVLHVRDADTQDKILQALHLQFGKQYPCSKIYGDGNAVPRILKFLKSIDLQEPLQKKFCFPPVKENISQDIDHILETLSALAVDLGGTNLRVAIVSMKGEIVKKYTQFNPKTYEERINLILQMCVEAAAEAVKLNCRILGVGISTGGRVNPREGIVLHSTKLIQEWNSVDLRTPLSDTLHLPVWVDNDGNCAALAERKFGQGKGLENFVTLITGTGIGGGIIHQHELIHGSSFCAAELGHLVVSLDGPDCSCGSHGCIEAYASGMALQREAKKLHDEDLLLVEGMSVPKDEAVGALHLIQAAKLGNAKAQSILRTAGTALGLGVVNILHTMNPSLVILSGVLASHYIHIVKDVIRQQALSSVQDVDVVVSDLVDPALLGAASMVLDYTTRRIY
UniProt P49448: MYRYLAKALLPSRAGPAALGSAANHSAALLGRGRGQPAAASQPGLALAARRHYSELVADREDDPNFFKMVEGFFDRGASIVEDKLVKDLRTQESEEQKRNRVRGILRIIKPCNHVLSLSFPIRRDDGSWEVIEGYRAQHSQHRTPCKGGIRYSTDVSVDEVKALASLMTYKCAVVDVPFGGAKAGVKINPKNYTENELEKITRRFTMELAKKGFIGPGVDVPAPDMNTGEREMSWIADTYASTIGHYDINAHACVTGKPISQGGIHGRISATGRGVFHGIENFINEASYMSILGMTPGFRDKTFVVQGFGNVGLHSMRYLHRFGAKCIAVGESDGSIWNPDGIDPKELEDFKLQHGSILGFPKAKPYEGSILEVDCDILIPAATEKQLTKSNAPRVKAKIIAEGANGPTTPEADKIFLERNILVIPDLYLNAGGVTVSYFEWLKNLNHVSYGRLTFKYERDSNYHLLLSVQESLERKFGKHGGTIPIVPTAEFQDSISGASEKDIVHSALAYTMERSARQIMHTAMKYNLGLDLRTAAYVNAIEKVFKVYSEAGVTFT
UniProt P04899, whole entry, looked up: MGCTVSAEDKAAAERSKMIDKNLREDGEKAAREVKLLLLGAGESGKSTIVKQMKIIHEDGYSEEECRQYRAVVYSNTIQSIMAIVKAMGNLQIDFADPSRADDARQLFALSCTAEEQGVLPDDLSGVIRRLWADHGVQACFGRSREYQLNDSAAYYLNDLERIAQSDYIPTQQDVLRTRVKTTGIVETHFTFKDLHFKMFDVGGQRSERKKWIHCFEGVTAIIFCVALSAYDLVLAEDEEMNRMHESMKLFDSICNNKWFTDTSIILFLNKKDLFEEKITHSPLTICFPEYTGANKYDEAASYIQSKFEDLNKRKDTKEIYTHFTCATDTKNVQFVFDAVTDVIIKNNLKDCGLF
UniProt Q9NQX3: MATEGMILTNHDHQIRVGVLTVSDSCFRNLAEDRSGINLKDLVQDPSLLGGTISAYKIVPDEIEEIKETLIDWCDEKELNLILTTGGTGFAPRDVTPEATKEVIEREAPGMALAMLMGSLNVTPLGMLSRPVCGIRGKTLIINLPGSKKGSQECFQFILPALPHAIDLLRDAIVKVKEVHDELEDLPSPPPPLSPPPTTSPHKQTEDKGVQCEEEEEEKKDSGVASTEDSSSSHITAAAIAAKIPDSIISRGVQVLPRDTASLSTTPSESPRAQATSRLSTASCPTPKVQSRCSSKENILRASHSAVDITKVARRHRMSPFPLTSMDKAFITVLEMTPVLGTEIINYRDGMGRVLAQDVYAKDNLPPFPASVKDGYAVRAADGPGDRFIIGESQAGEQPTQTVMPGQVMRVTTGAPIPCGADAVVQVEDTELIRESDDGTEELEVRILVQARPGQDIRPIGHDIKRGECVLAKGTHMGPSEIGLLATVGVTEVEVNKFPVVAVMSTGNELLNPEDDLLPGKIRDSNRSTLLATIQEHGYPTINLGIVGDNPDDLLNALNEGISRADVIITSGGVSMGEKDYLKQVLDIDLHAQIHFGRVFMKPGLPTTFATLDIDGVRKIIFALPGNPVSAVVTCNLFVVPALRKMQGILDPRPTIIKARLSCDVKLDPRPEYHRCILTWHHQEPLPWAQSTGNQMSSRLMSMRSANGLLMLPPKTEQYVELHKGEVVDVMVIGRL
UniProt Q9UKJ3: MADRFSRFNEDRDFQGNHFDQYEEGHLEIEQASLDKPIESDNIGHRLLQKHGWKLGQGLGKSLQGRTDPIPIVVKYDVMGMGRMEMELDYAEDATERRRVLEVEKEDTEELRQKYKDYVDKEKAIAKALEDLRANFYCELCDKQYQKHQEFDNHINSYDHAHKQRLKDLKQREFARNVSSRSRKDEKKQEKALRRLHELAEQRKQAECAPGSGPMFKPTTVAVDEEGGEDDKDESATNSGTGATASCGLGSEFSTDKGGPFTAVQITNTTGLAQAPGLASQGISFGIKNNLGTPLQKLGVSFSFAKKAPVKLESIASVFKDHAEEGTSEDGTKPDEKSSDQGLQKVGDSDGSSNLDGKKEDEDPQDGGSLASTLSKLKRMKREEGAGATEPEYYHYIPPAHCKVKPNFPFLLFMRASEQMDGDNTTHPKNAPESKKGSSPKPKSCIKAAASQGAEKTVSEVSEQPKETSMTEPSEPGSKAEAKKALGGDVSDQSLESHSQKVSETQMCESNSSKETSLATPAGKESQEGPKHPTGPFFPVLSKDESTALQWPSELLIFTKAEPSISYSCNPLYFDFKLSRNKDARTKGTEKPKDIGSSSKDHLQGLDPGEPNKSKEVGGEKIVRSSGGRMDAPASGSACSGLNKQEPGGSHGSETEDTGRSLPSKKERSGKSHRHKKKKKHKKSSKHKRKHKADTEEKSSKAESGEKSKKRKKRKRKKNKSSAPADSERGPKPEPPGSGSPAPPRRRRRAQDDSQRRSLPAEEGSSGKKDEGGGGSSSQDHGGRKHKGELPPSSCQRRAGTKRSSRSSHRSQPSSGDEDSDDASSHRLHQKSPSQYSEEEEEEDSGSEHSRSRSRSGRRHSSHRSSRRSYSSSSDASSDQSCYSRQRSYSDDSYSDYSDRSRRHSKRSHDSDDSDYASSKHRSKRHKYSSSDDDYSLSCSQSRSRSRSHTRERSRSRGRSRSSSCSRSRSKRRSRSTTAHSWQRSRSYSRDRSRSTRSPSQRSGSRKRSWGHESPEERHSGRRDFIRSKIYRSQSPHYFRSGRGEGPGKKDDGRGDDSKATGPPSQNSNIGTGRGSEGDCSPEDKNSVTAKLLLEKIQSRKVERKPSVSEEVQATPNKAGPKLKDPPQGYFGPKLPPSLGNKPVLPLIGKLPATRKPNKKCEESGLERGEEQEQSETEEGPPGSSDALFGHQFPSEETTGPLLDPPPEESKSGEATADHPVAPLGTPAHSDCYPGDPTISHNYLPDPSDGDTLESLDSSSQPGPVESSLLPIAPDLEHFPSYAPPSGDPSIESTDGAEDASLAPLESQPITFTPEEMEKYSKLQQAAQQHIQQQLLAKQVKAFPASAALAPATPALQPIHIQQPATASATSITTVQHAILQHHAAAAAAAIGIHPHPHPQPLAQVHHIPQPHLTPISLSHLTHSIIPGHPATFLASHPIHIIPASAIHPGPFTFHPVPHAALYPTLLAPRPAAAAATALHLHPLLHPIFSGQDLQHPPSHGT
UniProt Q9NWU2, whole entry, looked up: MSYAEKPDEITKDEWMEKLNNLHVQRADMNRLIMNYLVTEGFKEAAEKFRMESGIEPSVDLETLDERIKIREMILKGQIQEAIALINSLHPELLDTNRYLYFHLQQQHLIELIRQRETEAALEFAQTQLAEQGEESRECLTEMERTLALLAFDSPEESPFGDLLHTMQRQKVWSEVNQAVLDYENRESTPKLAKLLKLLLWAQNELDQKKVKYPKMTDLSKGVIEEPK
UniProt Q9HAV0, whole entry, looked up: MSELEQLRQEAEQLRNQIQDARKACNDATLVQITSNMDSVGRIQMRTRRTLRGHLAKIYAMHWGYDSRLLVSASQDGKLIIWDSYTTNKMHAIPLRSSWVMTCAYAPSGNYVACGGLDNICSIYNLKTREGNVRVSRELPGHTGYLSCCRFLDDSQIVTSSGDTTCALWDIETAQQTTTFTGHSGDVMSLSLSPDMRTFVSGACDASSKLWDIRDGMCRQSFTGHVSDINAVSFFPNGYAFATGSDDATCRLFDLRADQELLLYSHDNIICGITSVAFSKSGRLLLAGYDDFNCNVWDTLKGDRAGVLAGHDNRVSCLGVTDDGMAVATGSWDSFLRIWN
UniProt Q9UJJ9: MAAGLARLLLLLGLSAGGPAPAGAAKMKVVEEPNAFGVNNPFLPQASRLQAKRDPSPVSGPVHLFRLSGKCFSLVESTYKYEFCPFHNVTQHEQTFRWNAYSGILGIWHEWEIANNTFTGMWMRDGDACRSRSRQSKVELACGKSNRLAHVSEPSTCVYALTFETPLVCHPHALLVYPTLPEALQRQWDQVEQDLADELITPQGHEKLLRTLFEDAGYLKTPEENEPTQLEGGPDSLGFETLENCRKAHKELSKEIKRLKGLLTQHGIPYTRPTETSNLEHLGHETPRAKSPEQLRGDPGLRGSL
UniProt Q8N335: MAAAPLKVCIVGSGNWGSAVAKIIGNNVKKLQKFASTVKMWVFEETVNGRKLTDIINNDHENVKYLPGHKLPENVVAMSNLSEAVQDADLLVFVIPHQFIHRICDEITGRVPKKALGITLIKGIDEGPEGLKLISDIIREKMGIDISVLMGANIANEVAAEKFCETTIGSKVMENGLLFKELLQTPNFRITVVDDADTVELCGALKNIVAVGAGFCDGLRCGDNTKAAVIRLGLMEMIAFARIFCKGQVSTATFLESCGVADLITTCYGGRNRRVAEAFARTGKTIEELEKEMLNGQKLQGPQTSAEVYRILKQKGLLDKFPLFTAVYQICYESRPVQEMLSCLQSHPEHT
UniProt O95249: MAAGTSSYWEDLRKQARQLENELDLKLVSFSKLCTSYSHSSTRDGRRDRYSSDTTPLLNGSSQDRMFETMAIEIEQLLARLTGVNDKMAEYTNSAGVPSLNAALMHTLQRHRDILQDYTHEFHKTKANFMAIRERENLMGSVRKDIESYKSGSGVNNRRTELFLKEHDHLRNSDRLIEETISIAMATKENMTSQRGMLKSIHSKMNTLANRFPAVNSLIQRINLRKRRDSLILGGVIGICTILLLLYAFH
UniProt Q9NS18: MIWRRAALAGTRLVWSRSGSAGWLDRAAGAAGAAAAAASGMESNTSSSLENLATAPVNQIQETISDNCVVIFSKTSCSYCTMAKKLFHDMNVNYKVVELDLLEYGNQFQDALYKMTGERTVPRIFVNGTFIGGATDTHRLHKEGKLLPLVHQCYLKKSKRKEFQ
UniProt Q08379: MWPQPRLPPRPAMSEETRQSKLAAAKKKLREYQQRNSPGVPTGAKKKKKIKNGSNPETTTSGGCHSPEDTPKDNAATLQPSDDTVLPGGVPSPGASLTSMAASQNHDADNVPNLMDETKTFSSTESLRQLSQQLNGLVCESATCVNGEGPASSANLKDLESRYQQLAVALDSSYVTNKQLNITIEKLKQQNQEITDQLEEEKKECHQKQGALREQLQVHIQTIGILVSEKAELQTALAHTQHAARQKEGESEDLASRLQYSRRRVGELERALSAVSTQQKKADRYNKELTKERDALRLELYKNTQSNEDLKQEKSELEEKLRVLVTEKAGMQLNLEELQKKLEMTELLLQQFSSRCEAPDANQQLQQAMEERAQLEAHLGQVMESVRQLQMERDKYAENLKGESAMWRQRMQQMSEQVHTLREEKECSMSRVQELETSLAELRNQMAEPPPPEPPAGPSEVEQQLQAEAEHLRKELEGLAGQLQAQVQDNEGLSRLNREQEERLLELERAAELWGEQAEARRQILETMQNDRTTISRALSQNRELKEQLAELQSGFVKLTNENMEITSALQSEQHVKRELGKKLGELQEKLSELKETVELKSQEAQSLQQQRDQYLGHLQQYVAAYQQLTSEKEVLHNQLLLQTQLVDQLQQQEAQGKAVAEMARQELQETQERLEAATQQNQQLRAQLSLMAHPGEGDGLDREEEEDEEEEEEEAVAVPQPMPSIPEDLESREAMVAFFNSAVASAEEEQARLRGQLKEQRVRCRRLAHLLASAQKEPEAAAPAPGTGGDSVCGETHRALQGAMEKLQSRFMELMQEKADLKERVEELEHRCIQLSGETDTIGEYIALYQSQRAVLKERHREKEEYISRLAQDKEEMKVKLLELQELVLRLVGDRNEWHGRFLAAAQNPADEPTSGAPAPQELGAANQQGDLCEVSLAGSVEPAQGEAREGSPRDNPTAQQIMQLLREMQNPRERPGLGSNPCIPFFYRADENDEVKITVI

How the values were obtained:
Experiment in all cases: log2 fold change, soluble protein after heating vs DMSO (PISA); higher = thermal stabilisation; K562 cells, 10 uM, 30 min; active = over 0.2 and 3.5 SD of the protein, either way, in both replicates (recomputed)
erlotinib = compound: C#Cc1cccc(Nc2ncnc3cc(OCCOC)c(OCCOC)cc23)c1 [erlotinib]
Method in brief: (§1)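 K562 cells at 2×10^6 cells/mL were treated with 10 μM compound for 30 min. Aliquots were heated for 3 min across 48°C-58°C, pooled, and extracted in PBS with 0.5% NP-40 at 4°C; soluble protein was the supernatant after 21,000xg for 90 min. Soluble protein was quantified by TMTpro 16plex LC-MS/MS with channel sums equalised, and reported as log2 fold change in thermal stability against DMSO controls, with values from duplicates.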

[1] = compound: C/C(=N\NC(=O)C1=CC(=CC=C1)S(=O)(=O)N2CCOCC2)/C3=C(C=CC(=C3)Cl)O
Method in brief: as §1

[2] = compound: C1=CC(=C(C=C1Cl)C2=NC3=NC=CN=C3C(=N2)NC4=CC=NC=C4)F
Method in brief: as §1

[3] = compound: C1=CC(=CC=C1C2=NC3=C(N2)C=C(C=C3)C(=O)N)OC4=CC=C(C=C4)Cl
Method in brief: as §1

[4] = compound: C1=CC2=C(C=CC(=C2)/C=C\3/C(=O)NC(=NCC4=CC=CS4)S3)N=C1
Method in brief: as §1

[5] = compound: C1=CC2=NC=CN=C2C=C1/C=C/3\C(=O)NC(=O)S3
Method in brief: as §1

[6] = compound: C1=CC=C(C=C1)C2=NC(=C(N2)C3=CC=NC=C3)C4=CC(=C(C=C4)Cl)O
Method in brief: as §1

[7] = compound: C1=CC=C2C(=C1)C3=NNC4=CC=CC(=C43)C2=O
Method in brief: as §1

[8] = compound: C1CCN(C1)C(=O)NC2=CC=CC(=C2)NC3=NC=C(C(=N3)NCCC4=CN=CN4)Br
Method in brief: as §1

[9] = compound: C1CN(CCC1(CC2=CC=C(C=C2)Cl)N)C3=NC=NC4=C3C=CN4
Method in brief: as §1

Measured: log2 fold change

GNE isoform 2 (UniProt Q9Y223)
inactive: erlotinib -0.029 | [1] 0.019 | [2] 0.02 | [3] 0.065 | [4] 0.045 | [5] -0.004 | [6] -0.072 | [7] -0.01 | [8] -0.016 | [9] 0.067

GMEB1 (UniProt Q9Y692)
inactive: erlotinib 0.106 | [1] 0.071 | [2] 0.012 | [3] -0.005 | [4] -0.006 | [5] 0.009 | [6] -0.027 | [7] -0.089 | [8] 0.004 | [9] 0.036

GLUD2 (UniProt P49448)
inactive: erlotinib 0.009 | [1] -0.028 | [2] 0.028 | [3] 0.036 | [4] 0.003 | [5] -0.011 | [6] 0.03 | [7] 0.027 | [8] -0.005 | [9] -0.009

GNAI2 isoform 4 (UniProt P04899)
inactive: erlotinib -0.109 | [1] 0.025 | [2] -0.01 | [3] 0.033 | [4] -0.065 | [5] 0.042 | [6] 0.047 | [7] -0.009 | [8] -0.083 | [9] -0.012

GRB2 (UniProt P62993)
inactive: erlotinib -0.03 | [1] 0 | [2] 0.053 | [3] 0.004 | [4] 0.014 | [5] 0.054 | [6] -0.013 | [7] 0.023 | [8] 0.029 | [9] 0.007

GPKOW (UniProt Q92917)
inactive: erlotinib 0.099 | [1] 0.116 | [2] 0.016 | [3] 0.016 | [4] 0.057 | [5] 0.013 | [6] -0.016 | [7] 0.029 | [8] -0.011 | [9] 0.001

GNPAT (UniProt O15228)
inactive: erlotinib 0.067 | [1] 0.112 | [2] 0.075 | [3] -0.001 | [4] 0.073 | [5] 0.03 | [6] 0.057 | [7] 0.019 | [8] -0.003 | [9] 0.058

GMPR2 isoform 2 (UniProt Q9P2T1)
inactive: erlotinib 0.015 | [1] -0.003 | [2] 0.057 | [3] 0.009 | [4] 0.011 | [5] 0.033 | [6] -0.006 | [7] -0.039 | [8] -0.032 | [9] 0.038

GNB1 (UniProt P62873)
inactive: erlotinib -0.055 | [1] 0.043 | [2] -0.016 | [3] 0.058 | [4] -0.021 | [5] -0.018 | [6] 0.007 | [7] -0.06 | [8] -0.088 | [9] -0.031

GRWD1 (UniProt Q9BQ67)
inactive: erlotinib -0.112 | [1] -0.108 | [2] -0.4 | [3] 0.037 | [4] -0.058 | [5] -0.007 | [6] 0.022 | [7] -0.022 | [8] 0.178 | [9] -0.242

GPHN isoform 2 (UniProt Q9NQX3)
inactive: erlotinib 0.045 | [1] -0.01 | [2] 0.023 | [3] 0.023 | [4] 0.018 | [5] 0.014 | [6] 0 | [7] -0.04 | [8] -0.011 | [9] 0.054

GNAQ (UniProt P50148)
inactive: erlotinib -0.007 | [1] -0.003 | [2] 0.023 | [3] 0.055 | [4] 0.022 | [5] -0.014 | [6] -0.017 | [7] -0.026 | [8] -0.033 | [9] 0.085

GPATCH8 (UniProt Q9UKJ3)
inactive: erlotinib -0.001 | [1] -0.02 | [2] 0.057 | [3] -0.049 | [4] 0.035 | [5] 0.052 | [6] -0.038 | [7] -0.01 | [8] -0.005 | [9] -0.026

GID8 (UniProt Q9NWU2)
inactive: erlotinib -0.037 | [1] -0.013 | [2] 0.002 | [3] 0.024 | [4] 0.036 | [5] 0.061 | [6] 0.029 | [7] 0.027 | [8] 0.005 | [9] -0.086

GINS3 (UniProt Q9BRX5)
inactive: erlotinib -0.005 | [1] 0.117 | [2] 0.054 | [3] -0.027 | [4] -0.022 | [5] 0.012 | [6] 0.019 | [7] 0.042 | [8] 0.025 | [9] -0.026

Looked up one by one from the list above (2):
GPKOW (UniProt Q92917)
inactive: erlotinib 0.099 | [1] 0.116 | [2] 0.016 | [3] 0.016 | [4] 0.057 | [5] 0.013 | [6] -0.016 | [7] 0.029 | [8] -0.011 | [9] 0.001

GNB1 (UniProt P62873)
inactive: erlotinib -0.055 | [1] 0.043 | [2] -0.016 | [3] 0.058 | [4] -0.021 | [5] -0.018 | [6] 0.007 | [7] -0.06 | [8] -0.088 | [9] -0.031

Continuation:

GNB4 (UniProt Q9HAV0)
inactive: erlotinib 0.008 | [1] 0.028 | [2] -0.105 | [3] 0.008 | [4] -0.24 | [5] -0.016 | [6] 0.003 | [7] -0.087 | [8] -0.106 | [9] 0.026

GLS isoform 3 (UniProt O94925)
inactive: erlotinib 0.09 | [1] 0.156 | [2] -0.041 | [3] -0.094 | [4] 0.027 | [5] 0.004 | [6] 0 | [7] -0.082 | [8] -0.11 | [9] -0.12

GNPTG (UniProt Q9UJJ9)
inactive: erlotinib -0.016 | [1] -0.003 | [2] 0.012 | [3] 0.007 | [4] -0.126 | [5] -0.043 | [6] 0.008 | [7] 0.038 | [8] -0.02 | [9] 0.018

GPD1L (UniProt Q8N335)
inactive: erlotinib 0.047 | [1] 0.11 | [2] 0.032 | [3] 0.099 | [4] 0.078 | [5] -0.137 | [6] 0.009 | [7] 0 | [8] -0.001 | [9] 0.041

GOSR1 (UniProt O95249)
inactive: erlotinib 0.015 | [1] 0.068 | [2] 0.007 | [3] 0.03 | [4] -0.042 | [5] 0.068 | [6] 0.017 | [7] -0.025 | [8] 0.039 | [9] -0.068

GMEB2 (UniProt Q9UKD1)
inactive: erlotinib 0.003 | [1] 0.039 | [2] 0.168 | [3] 0.004 | [4] -0.009 | [5] 0.047 | [6] -0.022 | [7] -0.117 | [8] -0.105 | [9] 0.024

GLS (UniProt O94925)
inactive: erlotinib 0.003 | [1] 0.105 | [2] 0.174 | [3] -0.107 | [4] -0.043 | [5] 0.14 | [6] 0.034 | [7] -0.023 | [8] -0.091 | [9] -0.03

GLRX2 isoform 2 (UniProt Q9NS18)
inactive: erlotinib -0.015 | [1] -0.005 | [2] 0.148 | [3] -0.002 | [4] -0.033 | [5] 0.123 | [6] -0.108 | [7] -0.095 | [8] -0.037 | [9] -0.001

GMPR (UniProt P36959)
inactive: erlotinib -0.056 | [1] 0.047 | [2] 0.047 | [3] 0.051 | [4] -0.01 | [5] -0.016 | [6] -0.022 | [7] -0.037 | [8] -0.012 | [9] 0.02

GOLGA2 (UniProt Q08379)
inactive: erlotinib 0.019 | [1] 0.008 | [2] -0.118 | [3] -0.012 | [4] -0.029 | [5] 0.092 | [6] -0.045 | [7] 0.007 | [8] -0.082 | [9] -0.108

GNA13 (UniProt Q14344)
inactive: erlotinib -0.01 | [1] 0.046 | [2] 0.009 | [3] 0.034 | [4] 0.036 | [5] 0.001 | [6] -0.024 | [7] -0.031 | [8] -0.031 | [9] 0.083

GLIPR2 (UniProt Q9H4G4)
inactive: erlotinib 0.039 | [1] 0.054 | [2] -0.035 | [3] 0.15 | [4] 0.023 | [5] -0.019 | [6] -0.062 | [7] -0.028 | [8] 0.045 | [9] -0.058

GOLGA3 (UniProt Q08378)
inactive: erlotinib -0.009 | [1] 0.03 | [2] 0.074 | [3] 0.01 | [4] 0.013 | [5] 0.015 | [6] 0.019 | [7] -0.04 | [8] -0.018 | [9] -0.02

GINS4 (UniProt Q9BRT9)
inactive: erlotinib 0.031 | [1] 0.098 | [2] 0.043 | [3] 0.029 | [4] -0.023 | [5] 0 | [6] 0.014 | [7] 0.03 | [8] -0.012 | [9] 0.048

GM2A (UniProt P17900)
inactive: erlotinib 0.001 | [1] 0.023 | [2] 0.049 | [3] -0.088 | [4] 0.087 | [5] -0.003 | [6] -0.054 | [7] -0.061 | [8] -0.014 | [9] -0.004
